Reference: patent US20150140059A1 (The Regents of the University of California, priority 2012, published 2015)
At least one compound was matched to its structure with a doubt left.

The chains behind the UniProt entries cited, without tags or fusion partners. Residues count along the entry.
UniProt P56726, 33-793: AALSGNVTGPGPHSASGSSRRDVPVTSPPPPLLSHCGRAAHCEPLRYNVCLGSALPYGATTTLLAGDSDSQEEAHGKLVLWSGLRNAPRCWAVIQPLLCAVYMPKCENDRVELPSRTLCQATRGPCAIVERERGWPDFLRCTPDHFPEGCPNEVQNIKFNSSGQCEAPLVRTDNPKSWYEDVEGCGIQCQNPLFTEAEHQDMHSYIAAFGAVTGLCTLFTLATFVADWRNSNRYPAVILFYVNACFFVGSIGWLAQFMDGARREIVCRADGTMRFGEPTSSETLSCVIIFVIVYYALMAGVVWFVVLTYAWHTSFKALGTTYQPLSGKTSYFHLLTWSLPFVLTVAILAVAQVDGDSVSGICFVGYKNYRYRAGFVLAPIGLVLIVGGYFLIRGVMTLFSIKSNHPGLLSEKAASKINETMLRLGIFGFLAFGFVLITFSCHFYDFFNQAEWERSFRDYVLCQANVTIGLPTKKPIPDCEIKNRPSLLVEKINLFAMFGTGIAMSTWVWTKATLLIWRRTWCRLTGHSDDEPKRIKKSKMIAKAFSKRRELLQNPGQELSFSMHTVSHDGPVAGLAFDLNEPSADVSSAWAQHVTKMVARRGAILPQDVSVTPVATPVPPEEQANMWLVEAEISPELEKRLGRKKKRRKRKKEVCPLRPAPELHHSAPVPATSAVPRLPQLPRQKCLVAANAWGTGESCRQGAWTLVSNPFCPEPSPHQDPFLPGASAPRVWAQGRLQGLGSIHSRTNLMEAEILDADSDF

Columns and labels:
[1] = test system: M2-10B4 bone marrow stromal cells; test: Alkaline phosphatase (ALP) activity assay in M2-10B4 cells; format: cell-based, mouse; details: 4 days (FIG. 8A)
Procedure: (§1) For direct comparison to Oxy133, C3H cells were also treated with Oxy34 and Oxy49 (FIG. 2A). After 4 days, alkaline phosphatase (ALP) activity was measured in whole cell extracts.
(§2) Cells at confluence were treated with vehicle, Oxy133 or Oxy149. After 4 days, alkaline phosphatase (ALP) activity was measured in whole cell extracts.
(§3) Alkaline phosphatase (ALP) activity assay on whole cell extracts (13,14), and von Kossa staining of cell monolayers for mineralization (16) were performed as previously described.

[2] = test system: C3H10T1/2 embryonic fibroblast cells; format: cell-based, mouse; details: C3H cells, compared with similar doses of Oxy34 and Oxy49
Procedure: as §1, §2, §3

[3] = test system: primary human mesenchymal stem cells; test: Matrix mineralization (von Kossa staining) in primary human MSC; format: cell-based; details: 5 weeks
Smoothened (YFP-Smo) = target: T1, Smoothened (YFP-Smo) (Mus musculus, UniProt P56726); test: YFP-Smo capture by 20S-beads, competition with free sterol; format: binding; details: 50 μM free competitor sterol, Western blot, semi-quantitative
T1 construct: expressed in transfected cells
Procedure: After 4 days ALP activity, and after 7 days the expression of osteogenic genes ALP, BSP, and OSX was measured by quantitative real-time PCR (p<0.001 for control vs. Oxy133, and for Oxy133 vs. Oxy133+Cyc for ALP activity and for the expression of all genes shown). […] (p<0.001 for control vs. Oxy133 at 100 nM, 250 nM, and 1 μM Oxy133). (FIG. 4C) The amount of YFP-Smo captured by 20S beads or control beads was compared in samples containing either no competitor or 50 μM of a free competitor sterol (20S, Oxy133 or Oxy16). The YFP-Smo captured by the beads was measured by Western blot (top) and plotted (bottom) relative to the amount captured in the binding reaction with no competitor.
We previously reported that 20S selectively activates Hh signaling by binding to the Smo receptor (19). To determine whether Oxy133 activates Hh signaling by the same mechanism, we tested the ability of Oxy133 to compete for YFP-tagged Smo (YFP-Smo) binding with a 20S analogue coupled to magnetic beads. As we previously reported, this analogue, nat-20S-yne, contains an alkyne moiety on the iso-octyl chain, allowing for click chemistry-mediated coupling to magnetic beads (20S-beads) (19). Using these beads for sterol-binding assays, the amount of YFP-Smo remaining on the beads relative to a no-competitor sample is measured by Western blotting. […]

pluripotent MSC cells = test: Adipogenesis of pluripotent MSC cells; format: cell-based
[4] = test system: primary human mesenchymal stem cells; test: Osteogenic gene expression by quantitative RT-PCR in primary human MSC; format: cell-based; details: all time points (data not shown)
Excerpt: (La Jolla, Calif.). […] Human primers sequences were: […] ID NO:1) and 3'-[NT] (SEQ ID NO:2), BSP 5'-[NT] ID NO:3) and 3'-[NT] ID NO:4), […] ID NO:5) and 3'-[NT]

Lewis rats = test: Rat posterolateral intertransverse process spinal fusion at L4-L5; format: in vivo
Procedure: Thirty-eight 8-week-old male Lewis rats were purchased from Charles River Laboratories (Wilmington, Mass.) and were maintained and housed at the UCLA vivarium in accordance with regulations set forth by the UCLA Office of Protection of Research Subjects. The study was performed under a protocol approved by the UCLA Animal Research Committee (ARC).
Animals were pre-medicated with sustained release buprenorphine thirty minutes prior to surgery and anesthetized with 2% isoflurane administered in oxygen (1 L/min). The surgical site was shaved and disinfected with Betadine and 70% ethanol. Posterolateral intertransverse process spinal fusion at L4-L5 was performed as in prior studies (21,22). The L6 vertebral body was identified using the iliac crest as a landmark. A 4-cm longitudinal midline incision was made through the skin and subcutaneous tissue over L4-L5 down to the lumbodorsal fascia. A 2-cm longitudinal paramedial incision was then made in the paraspinal muscles bilaterally to expose the transverse processes of L4-L5, which were decorticated with a high-speed burr. […] The implants were then covered with the overlying paraspinal muscles and the lumbodorsal fascia and skin were closed with 4-0 Prolene sutures (Ethicon, Inc., Somerville, N.J.). Animals were allowed to ambulate, eat, and drink ad libitum immediately after surgery.
Posteroanterior radiographs of the lumbar spine were taken on each animal at 4, 6, and 8 weeks after surgery using a Faxitron LX60 cabinet radiography system and evaluated blindly by two independent observers employing the following standardized scale: 0, no fusion; 1, unilateral fusion; and 2, complete bilateral fusion. The scores from the observers were added together and only a score of 4 was considered as complete fusion.
Eight weeks after surgery, animals were euthanized and the spines were surgically removed and evaluated by two blinded independent observers for motion between levels. Nonunion was recorded if motion was observed between the facets or transverse processes on either side. Complete fusion was recorded if no motion was observed bilaterally. Spines were scored as either fused or not fused. Unanimous agreement was required to consider complete fusion.
Each removed spine was analyzed by high resolution micro-computed tomography (micro-CT), using a SkyScan 1172 scanner (SkyScan, Belgium) with a voxel isotropic resolution of 20 μm and an X-ray energy of 55 kVp and […] to further assess the fusion rate and observe the fusion mass as we have previously reported (15). Three hundred and sixty projections were acquired over an angular range of 180° with steps of 0.5 with an exposure time of 220 msec/slice. Five frames were averaged at each rotation step to get better signal to noise ratio. A 0.5 mm aluminum filter was used to narrow down the X-ray beam frequency in order to minimize beam hardening artifact. Virtual image slices were reconstructed using the cone-beam reconstruction software version 2.6 based on the Feldkamp algorithm (SkyScan). These settings produced serial cross-sectional 1024×1024 pixel images. Sample re-orientation and 2D visualization were performed using DataViewer (SkyScan). 3D visualization was performed using Dolphin Imaging version 11 (Dolphin Imaging & Management Solutions, Chatsworth, Calif.). Fusion was defined as the bilateral presence of bridging bone between the L4 and L5 transverse processes. The reconstructed images were judged to be fused or not fused by two experienced independent observers. To quantify the density of bone formed within each fusion mass, the tissue volume of the mass (TV), trabecular bone volume within the mass (BV), BV/TV ratio, trabecular thickness, and trabecular separation were calculated. This was performed using DataViewer software with measurements across 501 axial slices (20 um per slice, 10.02 mm length) within each fusion mass, centered at the level of the intervertebral body of L4-5.

`CCCCCC[C@](C)(O)[C@H]1CC[C@H]2[C@@H]3C[C@H](OC(=O)CCC(=O)NCCOCCOCC(=O)Nc4ccc(OC)c(C(N)=O)c4O)[C@H]4C[C@@H](O)CC[C@]4(C)[C@H]3CC[C@@]21C` [Oxy149, (3S,5S,6S,8R,9S,10R,13S,14S,17S)-3-hydroxy-17-((S)-2-hydroxyoctan-2-yl)-10,13-dimethylhexadecahydro-1H-cyclopenta[a]phenanthren-6-yl 4-((2-(2-(2-((3-carbamoyl-2-hydroxy-4-methoxyphenyl)amino)-2-oxoethoxy)ethoxy)ethyl)amino)-4-oxobutanoate] was tested, and the “alkaline phosphatase activity (osteogenic differentiation marker)” value [1] was “induced”.

With `CCCCCC[C@](C)(O)[C@H]1CC[C@H]2[C@@H]3C[C@H](O)[C@H]4C[C@@H](O)CC[C@]4(C)[C@H]3CC[C@@]21C` [Oxy133, (3S,5S,6S,8R,9S,10R,13S,14S,17S)-17-((S)-2-hydroxyoctan-2-yl)-10,13-dimethylhexadecahydro-1H-cyclopenta[a]phenanthrene-3,6-diol] the “alkaline phosphatase activity (osteogenic differentiation marker)” value [1] was “induced”, the “level of ALP activity at high doses” value [2] was “greater level of ALP activity than similar doses of Oxy34 and Oxy49” and the extracellular matrix mineralization [3] was “robust extracellular matrix mineralization”. For the same compound, the “amount of YFP-Smo captured on 20S-coupled beads” value (Smoothened (YFP-Smo)) was “reduced the amount of YFP-Smo captured”, the adipogenesis (pluripotent MSC cells) was “inhibits adipogenesis” and the ALP expression [4] was “no change”. For the same compound, the “bilateral fusion, micro-CT” value (Lewis rats; 0.2 mg, 8 weeks) was “no bilateral fusions”, the “bone formation, gross evaluation” value (Lewis rats; 0.2 mg, 8 weeks) was “Some bone formation was noted in two animals” and the “bone formation, micro-CT” value (Lewis rats; 0.2 mg, 8 weeks) was “some bone formation was seen in two animals”. For the same compound, the “fusion, manual assessment” value (Lewis rats; 0.2 mg, 8 weeks) was “No unilateral or bilateral fusion”, the “fusion mass on radiographs” value (Lewis rats; 0.2 mg, eight weeks (data not shown)) was “No fusion mass was observed” and the “bilateral fusion on radiographs” value (Lewis rats; 0.2 mg, four weeks) was “no fusion”. For the same compound, the “unilateral fusion, manual palpation” value (Lewis rats; 2 mg, 8 weeks) was “two additional animals”, the “unilateral fusion, micro-CT” value (Lewis rats; 2 mg, 8 weeks) was “two additional animals” and the “unilateral fusion on radiographs” value (Lewis rats; 2 mg, four weeks) was “three animals”. For the same compound, the “bilateral bridging trabecular bone, micro-CT” value (Lewis rats; 20 mg, 8 weeks) was “all animals”, the “trabecular bone formation, histology” value (Lewis rats; 20 mg, compared with BMP2 group, visual inspection) was “more robust” and the fusion on radiographs (Lewis rats; 20 mg, eight weeks) was “all animals”. The “unilateral fusion on radiographs” value (Lewis rats; 20 mg, four weeks) was “Unilateral fusion was observed in the remaining Oxy133-20 mg treated animal”, the “bilateral fusion on radiographs” value (Lewis rats; 20 mg, six weeks) was “all animals had fused bilaterally” and the “adipocytes within the fusion mass, histology” value (Lewis rats; groups treated with Oxy133, compared with BMP2, visual inspection) was “significantly less”.
